For part of these data: The name of at least one read-out is uncertain. At least one compound was matched to its structure with a doubt left.
Assays:
[1] = Forced degradation study (heat and acid) on Meloxicam/Gabapentin/Lidocaine/Prilocaine Cream 0.09%/2.5%/2.15%/2.15%
Method: (§1) The column temperature was 50° C.
as §1

[2] = 198 Day Potency Test of transdermal cream including meloxicam, lamotrigine, lidocaine, and prilocaine; format: physicochemical; conditions: 198 days, stored at approximately 20° C. to 25° C., in cream, HPLC
Method: (§2) The sample was stored in approximately 20° C. to 25° C. (68° F. to 77° F.) conditions, and contained one large white tube with cream in a clear bag.

[3] = 100 Day Potency Test of transdermal cream including meloxicam, topiramate, lidocaine, and prilocaine; format: physicochemical; conditions: 100 days, stored at approximately 20° C. to 25° C., in cream, HPLC
Method: as §2

[4] = H+ (0.1N HCl), RT (22-25° C.), Day 2
[5] = H+ (0.1N HCl), RT (22-25° C.), Day 5
[6] = H+ (0.1N HCl), RT (22-25° C.), Day 3

SMILES | Recovery (%) ([1]; H+ (0.1N HCl), 40° C., Day 2) | Recovery (%) ([1]; H+ (0.1N HCl), 40° C., Day 3) | Recovery (%) ([1]; H+ (0.1N HCl), 40° C., Day 5) | Recovery (%) ([1]; H+ (0.1N HCl), 65° C., Day 2) | Recovery (%) ([1]; H+ (0.1N HCl), 65° C., Day 3) | Recovery (%) ([1]; H+ (0.1N HCl), 65° C., Day 5) | Recovery (%) [1, 4] [%] | Recovery (%) [1, 5] [%] | Recovery (%) ([1]; Untreated, Day 0) | Recovery (%) ([1]; Untreated, Day 2) | Recovery (%) ([1]; Untreated, Day 3) | Recovery (%) ([1]; heated 40° C., Day 2) | Recovery (%) ([1]; heated 40° C., Day 3) | Recovery (%) ([1]; heated 40° C., Day 5) | Recovery (%) ([1]; heated 65° C., Day 2) | Recovery (%) ([1]; heated 65° C., Day 3) | Recovery (%) ([1]; heated 65° C., Day 5) | Recovery (%) ([1]; heated 80° C., Day 2) | Recovery (%) ([1]; heated 80° C., Day 3) | Recovery (%) ([1]; heated 80° C., Day 5) | also measured
CCN(CC)CC(=O)Nc1c(C)cccc1C [Lidocaine] | 100 | 96.8 | 99.4 | 93.8 | 85.6 | 83.8 | 104 | 102 | 102 | 106 | 99.0 | 102 | 99.0 | 96.7 | 94.1 | 86.1 | 86.4 | 70.0 | 58 | 49.9 | 
Cc1cnc(NC(=O)C2=C(O)c3ccccc3S(=O)(=O)N2C)s1 [Meloxicam] | 102 | 101 | 102 | 101 | 99.5 | 97.7 | 103 | 101 | 102 | 104 | 102 | 101 | 102 | 102 | 101 | 101 | 100 | 95.9 | 93.3 | 90.3 | Results (amount of analyte found) [2]: 0.0962%; % of EXP. ([2]; relative to expected amount): 106.9%; Results (amount of analyte found) [3]: 0.0945%; % of EXP. ([3]; relative to expected amount): 105.0%; Recovery (%) ([1]; H+ (0.1N HCl), 40° C., Day 16): 100%; Recovery (%) ([1]; H+ (0.1N HCl), 65° C., Day 16): 89.3%; Recovery (%) [1, 6]: 101%; Recovery (%) ([1]; H+ (0.1N HCl), RT (22-25° C.), Day 16): 101%; Recovery (%) ([1]; Untreated, Day 5): 103%; Recovery (%) ([1]; Untreated, Day 16): 102%; Recovery (%) ([1]; heated 40° C., Day 16): 102%; Recovery (%) ([1]; heated 65° C., Day 16): 95.5%; Recovery (%) ([1]; heated 80° C., Day 16): 52.0%
CCCNC(C)C(=O)Nc1ccccc1C (stereo not drawn) [Prilocaine] | 96.4 | 92.6 | 93.2 | 90.6 | 51.3 | 81.9 | 98.2 | 97.2 | 101 | 101 | 102 | 98.7 | 96.4 | 92.9 | 90.0 | 87.7 | 83.2 | 60.7 | 48.3 | 40.7 | Recovery (%) [1, 6]: 96.5%; Recovery (%) ([1]; Untreated, Day 5): 99.0%
